Values quoted from earlier work as cited in patent US5108993A, “Pharmaceutical composition comprising zidovudine and inosiplex or components thereof for the treatment of aids-related syndromes” (priority 1988, dated 1992).
At least one compound was matched to its structure with a doubt left.

Tested on: HIV
Conditions: with zidovudine; GB 2 181 128 A; cited from earlier work

SMILES | effect on zidovudine
Nc1ncnc2c1ncn2[C@H]1CC[C@@H](CO)O1 [dideoxyadenosine] | synergistic effect
Nc1ccn([C@H]2CC[C@@H](CO)O2)c(=O)n1 [dideoxycytidine] | synergistic effect
